Measurements taken from ChEMBL document CHEMBL3259599, “Novel colchicine-site binders with a cyclohexanedione scaffold identified through a ligand-based virtual screening approach” (J Med Chem, 2014).

How the values were obtained:
HeLa = assay: Antiproliferative activity against human HeLa cells after 4 days by coulter counter analysis; format: functional, cell-based; settings: 96 h
CCRF-CEM = assay: Antiproliferative activity against human CEM cells after 48 to 96 hrs by coulter counter analysis; format: functional, cell-based
[1] = Antiproliferative activity against HMEC1 after 4 days by coulter counter analysis; format: functional; settings: Homo sapiens, HMEC-1, 96 h

SMILES: COc1cc2c(c(OC)c1OC)-c1ccc(OC)c(=O)cc1[C@@H](NC(C)=O)CC2 [COLCHICINE]
- IC50 (HeLa): 8.7 nM
- IC50 (CCRF-CEM): 13 nM
- IC50 [1]: 3.8 nM
